Source: article PMC7959726
These are yes or no findings as the source states them, for the method shown. Some entries that bind do so weakly or less than the wild type. Tags and fused reporters may be left off the sequences shown.

Assays:
[1] = target: T1, C-terminal domain of CYP38 (239-437), two-hybrid fusion (Arabidopsis) (UniProt Q9SSA5); experiment: two-hybrid; yeast strain AH109; CYP38 forms in pGBKT7 as baits, CP47 E-loop in pGADT7 as prey; growth of dilutions (1/10, 1/100, 1/1,000) on -LTAH medium
T1 sequence: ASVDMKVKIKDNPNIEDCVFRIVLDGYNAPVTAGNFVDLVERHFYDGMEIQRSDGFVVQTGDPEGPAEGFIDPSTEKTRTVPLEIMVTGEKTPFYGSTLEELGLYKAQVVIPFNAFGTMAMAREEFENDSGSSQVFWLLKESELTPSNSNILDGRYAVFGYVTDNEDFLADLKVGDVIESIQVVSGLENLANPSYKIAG

[2] = target: T2, C-terminal domain of CYP38 (239-437) with the quadruple mutation, two-hybrid fusion (Arabidopsis) (UniProt Q9SSA5); experiment: as above
T2 sequence: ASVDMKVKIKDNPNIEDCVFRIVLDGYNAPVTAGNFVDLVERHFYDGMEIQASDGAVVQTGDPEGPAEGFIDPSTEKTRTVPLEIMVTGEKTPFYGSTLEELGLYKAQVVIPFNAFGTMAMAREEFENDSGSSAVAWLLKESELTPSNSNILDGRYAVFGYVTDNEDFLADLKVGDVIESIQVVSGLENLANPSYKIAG

binding [1]: binds | binding [2]: binds
B1: N-terminal domain of CYP38 (92-215), two-hybrid fusion (domain or fragment, UniProt Q9SSA5 92-215)
chain: SVLISGPPIKDPEALLRYALPIDNKAIREVQKPLEDITDSLKIAGVKALDSVERNVRQASRTLQQGKSIIVAGFAESKKDHGNEMIEKLEAGMQDMLKIVEDRKRDAVAPKQKEILKYVGGIEE
